Measurements: patent US9868772B2 (INDIANA UNIVERSITY RESEARCH AND TECHNOLOGY CORPORATION, priority 2012, dated 2018)

Test: general procedure: Boc solid-phase peptide synthesis; MBHA resin, 100-180 mesh, 1% DVB, loading 0.7-1.0 mmol/g (Midwest Biotech); DEPBT/DIEA single couplings; DIC for acylation
Details: lipidation step, analytical HPLC, UV 214 or 220 nm

**Q.** For “Glucagon Aib2 E16 A18 L27 D29 Cex Cys40(S-2 palmityl)amide”, which “final HPLC purity” value is on record?
**A.** Its value is 90%+.
